Data on two molecules can be found in US20160376356A1.

Chains of the proteins cited; added tags and fusions are not shown. Lines headed by an entry give the natural chain unless they say otherwise; changes in a name come on top. A line that says so, or that is headed by a name, gives the form on record, which may keep a tag or linker.
ED-A isoform of fibronectin (A-FN) in tumour tissue sections (P02751, form named): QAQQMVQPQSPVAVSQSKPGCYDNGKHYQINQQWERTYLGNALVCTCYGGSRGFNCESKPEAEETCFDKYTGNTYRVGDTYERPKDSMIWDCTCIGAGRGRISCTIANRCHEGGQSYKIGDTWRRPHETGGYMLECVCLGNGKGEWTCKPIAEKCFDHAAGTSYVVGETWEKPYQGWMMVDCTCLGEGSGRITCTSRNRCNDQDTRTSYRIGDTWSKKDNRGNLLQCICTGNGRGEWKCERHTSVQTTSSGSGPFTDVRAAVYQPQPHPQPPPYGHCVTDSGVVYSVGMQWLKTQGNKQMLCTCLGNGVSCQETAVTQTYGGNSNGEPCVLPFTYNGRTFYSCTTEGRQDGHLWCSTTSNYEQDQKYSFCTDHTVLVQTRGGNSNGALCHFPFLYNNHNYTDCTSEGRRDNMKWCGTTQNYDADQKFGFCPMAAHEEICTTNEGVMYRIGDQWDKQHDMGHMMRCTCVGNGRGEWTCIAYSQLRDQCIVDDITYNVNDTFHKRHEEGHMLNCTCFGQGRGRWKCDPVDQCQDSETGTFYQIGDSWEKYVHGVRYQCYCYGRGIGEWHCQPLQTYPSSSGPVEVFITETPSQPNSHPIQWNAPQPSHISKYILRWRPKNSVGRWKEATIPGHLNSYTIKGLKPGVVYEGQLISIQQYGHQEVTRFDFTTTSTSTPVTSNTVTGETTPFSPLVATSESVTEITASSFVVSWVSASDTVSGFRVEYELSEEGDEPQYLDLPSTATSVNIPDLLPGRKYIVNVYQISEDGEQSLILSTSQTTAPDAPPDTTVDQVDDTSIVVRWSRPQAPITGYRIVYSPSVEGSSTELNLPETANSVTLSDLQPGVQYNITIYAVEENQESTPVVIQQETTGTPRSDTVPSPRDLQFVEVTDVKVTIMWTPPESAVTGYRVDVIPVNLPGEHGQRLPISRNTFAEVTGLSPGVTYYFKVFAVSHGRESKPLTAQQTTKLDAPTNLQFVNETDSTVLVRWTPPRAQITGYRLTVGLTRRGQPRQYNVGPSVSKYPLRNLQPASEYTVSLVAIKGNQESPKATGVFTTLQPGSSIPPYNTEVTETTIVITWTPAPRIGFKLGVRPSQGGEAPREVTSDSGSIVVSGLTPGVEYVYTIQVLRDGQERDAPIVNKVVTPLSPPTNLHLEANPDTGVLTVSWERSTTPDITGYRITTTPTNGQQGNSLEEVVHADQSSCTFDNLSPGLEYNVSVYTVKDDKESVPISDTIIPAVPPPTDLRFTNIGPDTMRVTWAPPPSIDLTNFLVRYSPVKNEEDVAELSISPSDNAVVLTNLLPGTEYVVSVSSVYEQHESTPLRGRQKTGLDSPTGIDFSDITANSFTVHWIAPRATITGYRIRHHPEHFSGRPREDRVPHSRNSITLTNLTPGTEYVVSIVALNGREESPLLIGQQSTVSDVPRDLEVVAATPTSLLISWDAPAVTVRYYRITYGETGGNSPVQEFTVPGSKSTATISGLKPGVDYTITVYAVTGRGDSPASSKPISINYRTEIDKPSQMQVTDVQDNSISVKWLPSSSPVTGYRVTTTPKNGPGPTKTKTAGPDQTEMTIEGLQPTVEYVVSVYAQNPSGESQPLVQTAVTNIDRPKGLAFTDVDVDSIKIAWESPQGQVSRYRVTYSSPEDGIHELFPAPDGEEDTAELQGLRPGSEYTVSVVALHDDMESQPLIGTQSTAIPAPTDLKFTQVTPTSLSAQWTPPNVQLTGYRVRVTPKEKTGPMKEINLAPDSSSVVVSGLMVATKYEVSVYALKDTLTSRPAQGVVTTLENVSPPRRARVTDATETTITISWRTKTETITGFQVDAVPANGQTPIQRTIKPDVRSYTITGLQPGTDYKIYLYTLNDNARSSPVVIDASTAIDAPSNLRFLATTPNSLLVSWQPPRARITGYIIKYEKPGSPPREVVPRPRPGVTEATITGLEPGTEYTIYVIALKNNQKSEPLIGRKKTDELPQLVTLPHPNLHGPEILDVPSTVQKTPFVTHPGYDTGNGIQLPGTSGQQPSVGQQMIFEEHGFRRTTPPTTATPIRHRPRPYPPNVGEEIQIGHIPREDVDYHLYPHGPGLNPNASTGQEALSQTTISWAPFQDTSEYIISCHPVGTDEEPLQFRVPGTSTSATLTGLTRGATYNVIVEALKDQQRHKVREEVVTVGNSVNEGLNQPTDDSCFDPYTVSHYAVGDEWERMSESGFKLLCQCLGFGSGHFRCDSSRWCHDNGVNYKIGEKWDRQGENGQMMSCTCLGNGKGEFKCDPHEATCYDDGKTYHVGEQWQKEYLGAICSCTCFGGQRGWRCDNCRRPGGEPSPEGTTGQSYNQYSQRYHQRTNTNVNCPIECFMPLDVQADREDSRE

Experiment [1] deals with ED-A isoform of fibronectin (A-FN) in tumour tissue sections (human) (UniProt P02751). Description: immunohistochemistry, myc-tagged scFv on sections of primary human Ramos lymphoma.
Experiment [2] shares this target. Description: immunohistochemistry, myc-tagged scFv on sections of small cell and non-small cell lung cancers.

Results are given in words; binding and its absence hold for the method and conditions named. Some binding calls cover weakened binding; strength is not graded here.

B1: anti-ED-A antibody F8 (scFv)
scFv: EVQLVESGGGLVQPGGSLRLSCAASGFTFSLFTMSWVRQAPGKGLEWVSAISGSGGSTYYADSVKGRFTISRDNSKNTLYLQMNSLRAEDTAVYYCAKSTHLYLFDYWGQGTLVTVSSGGGGSGGGGSGGGGSGGGGSEIVLTQSPGTLSLSPGEKATLSCRASQSVSMPFLAWYQQKPGQAPRLLIYGASSRATGIPDRFSGSGSGTDFTLTISRLEPEDFAVYYCQQMRGRPPTFGQGTKVEIKAAAEQKLISEEDLNGAA
As to B1, the binding result in experiment [1] is recorded as “binds”.

B2: anti-ED-A antibody D5 (scFv)
scFv: EVQLVESGGGLVQPGGSLRLSCAASGFTFSVMKMSWVRQAPGKGLEWVSAISGSGGSTYYADSVKGRFTISRDNSKNTLYLQMNSLRAEDTAVYYCAKSTHLYLFDYWGQGTLVTVSSGGGGSGGGGSGGGGSGGGGSEIVLTQSPGTLSLSPGEKATLSCRASQSVSNAFLAWYQQKPGQAPRLLIYGASSRATGIPDRFSGSGSGTDFTLTISRLEPEDFAVYYCQQMRGRPPTFGQGTKVEIKAAAEQKLISEEDLNGAA
Consider B2, for which the binding entry in experiment [2] is listed as “binds”.
